From publication PMC6587807
Results are given in words; binding and its absence hold for the method and conditions named. Binding can be weak; no strength is given.

The chains behind the UniProt entries cited, without tags or fusion partners. Where a name states a change or a piece, a line headed by the entry shows the natural chain unless it says otherwise.
UniProt A0A1C9HJI3: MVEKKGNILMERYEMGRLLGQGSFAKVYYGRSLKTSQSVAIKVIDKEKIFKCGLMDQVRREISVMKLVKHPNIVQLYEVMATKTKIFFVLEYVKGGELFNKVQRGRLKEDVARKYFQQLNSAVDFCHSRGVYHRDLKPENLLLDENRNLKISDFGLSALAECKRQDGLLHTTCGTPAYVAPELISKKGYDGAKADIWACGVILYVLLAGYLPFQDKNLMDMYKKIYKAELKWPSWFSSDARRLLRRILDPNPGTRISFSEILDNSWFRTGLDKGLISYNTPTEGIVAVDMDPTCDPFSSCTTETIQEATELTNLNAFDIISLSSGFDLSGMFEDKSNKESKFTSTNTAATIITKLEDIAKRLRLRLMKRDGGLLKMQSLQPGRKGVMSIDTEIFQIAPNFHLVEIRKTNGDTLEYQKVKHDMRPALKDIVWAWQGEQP

Target: TaNH2-GST (wheat (Triticum aestivum cv. Suwon11))
Assay: pull-down; GST pull-down; equal amounts of GST-tagged TaNH2 proteins mixed with TaCIPK10-His, 4 °C, 2 h; Western blot with anti-His and anti-GST; both purified

- binding: binds
Substance: TaCIPK10-His (from UniProt A0A1C9HJI3) (enzyme)
